Data published in patent publication US10815276B2, “Cell penetrating peptides and methods of making and using thereof” (Entrada Therapeutics, Inc., priority 2014, dated 2020).
pIC50: −log10 of the molar value. Not every detail of the peptide structures is certain; ends, links or a residue may be inferred. Starred links: 1 amine or outer side, 2 acyl side, 3 side chain; linkers in the order of their positions; H or OH if unused. Positions of bridges follow the written chain, without caps; N, C: chain ends. Non-standard residues stand in square brackets, D forms with d. Residues, ends and D or L forms follow the SMILES beside them. Trimesoyl = O=C(c1cc(C(=O)[*:2])cc(C(=O)[*:3])c1)[*:1]; F2Pmp = N[C@@H](Cc1ccc(C(F)(F)P(=O)(O)O)cc1)C(=O)O; 2Nal = N[C@@H](Cc1ccc2ccccc2c1)C(=O)O; Dap = NC[C@H](N)C(=O)O

Experiments:
[1] = test system: A549 cells; test: Immunoblot of global pY protein levels; type: cell-based, human; settings: 2 h
[2] = test system: HepG2 cells; test: Insulin receptor phosphorylation immunoblot; type: cell-based; settings: 2 h, then 100 nM insulin 5 min
[3] = test system: A549 lung cancer cells; test: Live-cell confocal microscopy of FITC-labeled PTP1B inhibitors; type: cell-based, human; settings: 5 μM FITC-labeled inhibitor, 2 h
Method: Approximately 5×10^4 A549 cells were seeded in 35-mm glass-bottomed microwell dish (MatTek) containing 1 mL of media and cultured for one day. A549 cells were gently washed with DPBS once and treated with the FITC-labeled PTP1B inhibitors (5 μM), dextran^Rho (1 mg mL^−1) in growth media for 2 h at 37° C. in the presence of 5% CO2. The peptide-containing media was removed and the cells were washed with DPBS three times and incubated for 10 min in 1 mL of DPBS containing 5 μM DRAQS. The cells were again washed with DPBS twice. Then the cells were imaged on a Visitech Infinity 3 Hawk 2D-array live cell imaging confocal microscope (with a 60× oil immersion lens) at 37° C. in the presence of 5% CO2. Live-cell confocal microscopic imaging of HEK293 cells after treatment with FITC-labeled Pin1 inhibitors were similarly conducted.

[4] = target: T1, TCPTP (Homo sapiens, UniProt P17706); test: PTP inhibition assay (pNPP); type: biochemical; settings: 500 μM p-nitrophenyl phosphate
T1 sequence (P17706 1-415): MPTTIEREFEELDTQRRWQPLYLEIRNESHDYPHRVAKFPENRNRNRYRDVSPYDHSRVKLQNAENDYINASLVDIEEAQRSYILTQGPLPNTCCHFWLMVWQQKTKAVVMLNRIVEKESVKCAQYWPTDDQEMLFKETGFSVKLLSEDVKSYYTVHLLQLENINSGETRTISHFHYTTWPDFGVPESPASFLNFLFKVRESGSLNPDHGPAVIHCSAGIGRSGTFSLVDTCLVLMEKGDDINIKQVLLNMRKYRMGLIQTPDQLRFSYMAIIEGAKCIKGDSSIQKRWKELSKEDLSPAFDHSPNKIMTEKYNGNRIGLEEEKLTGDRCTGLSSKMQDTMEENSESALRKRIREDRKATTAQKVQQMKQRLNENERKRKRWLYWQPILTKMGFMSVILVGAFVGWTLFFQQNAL

[5] = target: T2, PTP1B (Homo sapiens, UniProt P18031); test: PTP inhibition assay (pNPP); type: biochemical; settings: 500 μM p-nitrophenyl phosphate
T2 construct: The gene coding for the catalytic domain of PTP1B (amino acids 1-321) was amplified; made in house; host or cells: prokaryotic vector pET-22b(+)-ybbR
T2 sequence (P18031 1-321): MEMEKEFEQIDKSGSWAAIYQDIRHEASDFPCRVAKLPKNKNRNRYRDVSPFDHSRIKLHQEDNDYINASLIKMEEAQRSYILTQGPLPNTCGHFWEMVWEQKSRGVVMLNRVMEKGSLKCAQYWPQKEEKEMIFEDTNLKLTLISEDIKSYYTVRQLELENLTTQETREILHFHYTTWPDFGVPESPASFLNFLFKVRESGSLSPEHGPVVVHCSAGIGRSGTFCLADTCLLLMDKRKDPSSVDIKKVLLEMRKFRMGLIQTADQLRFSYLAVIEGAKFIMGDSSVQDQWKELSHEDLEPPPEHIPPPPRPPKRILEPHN
Method: PTP assays were performed in a quartz microcuvette (total volume 150 μL). The reaction mixture contains 100 mM Tris-HCl, pH 7.4, 50 mM NaCl, 2 mM EDTA, 1 mM TCEP, 0-1 μM of PTP inhibitor, and 500 μM para-nitrophenyl phosphate (pNPP). The enzymatic reaction was initiated by the addition of PTP (final concentration 15-75 nM) and monitored continuously at 405 nm on a UV-VIS spectrophotometer. Initial rates were calculated from the reaction progress curves (typically <60 s). The half-maximal inhibition constant (IC50) was defined as the concentration of an inhibitor that reduced the enzyme activity to 50% and was obtained by plotting the rates (V) against the inhibitor concentration [I] and fitting the data against the equation
[formula] where V0 is the enzymatic reaction rate in the absence of inhibitor. […] The reaction rate (V) was plotted against the pNPP concentration ([S]) and fitted against the equation
[formula] to obtain the Michaelis constant K. The Ki value was obtained by plotting the K values against the inhibitor concentration [I] and fitted to equation
[formula] where K0 is the Michaelis constant in the absence of inhibitor ([I]=0).

CC(C)[C@H]1NC(=O)[C@H](CO)NC(=O)c2cc3cc(c2)C(=O)NC[C@H](NC(=O)[C@H](Cc2c[nH]cn2)NC(=O)[C@H](Cc2ccc(C(F)(F)P(=O)(O)O)cc2)NC(=O)[C@@H]2CCCN2C1=O)C(=O)N[C@@H](CCCNC(=N)N)C(=O)N[C@@H](CCCNC(=N)N)C(=O)N[C@@H](CCCNC(=N)N)C(=O)N[C@@H](CCCNC(=N)N)C(=O)N[C@@H](Cc1ccc2ccccc2c1)C(=O)N[C@@H](Cc1ccccc1)C(=O)N[C@H](C(=O)N[C@@H](CCCCN)C(N)=O)CNC3=O [Bicyclic Inhibitor 4] (S[dV]P[F2Pmp]H[Dap]RRRR[2Nal]F[Dap]K-NH2; linker N-6-13 via Trimesoyl; C-terminus assumed)
Phosphotyrosine (pY) levels of proteins ([1]; 0-5 μM): dose-dependent increases in the phosphotyrosine (pY) levels | Concentration at which increase in tyrosine phosphorylation was already apparent [1]: 8 nM | Insulin receptor phosphorylation at pY1162pY1163 [2]: dose-dependent increase in insulin receptor phosphorylation | Cellular uptake (confocal) [3]: improved cell permeability over peptide 2 | pIC50 [4]: 6.30 | pIC50 [5]: 7.52
